{"source": "PubChem BioAssay AID1259405 (NCATS, 2018)", "assay": "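Silenced genes that increase secreted GFP made by CHO cells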 (primary screen)", "cell system": "Chinese hamster CHO-K1 ovary cells with stable secreted eGFP expression", "reagents": "single siRNA against mouse genes, 0.8 pmol siRNA per well (2 µl of 400 nM stock)", "duration": "3 days", "read-out": "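Percent of the per-plate non-targeting control median for intracellular GFP per well by laser scanning cytometry and for cell viability by ATP luminescence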", "scale": "GFP, % of control: higher = more GFP per well, higher productivity; viability (ATP), % of control: higher = more viable cells (more ATP)", "rule for the call": "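a knock-down is called active if GFP reaches 120% or more of non-targeting control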", "note": "Shown is a random part of about 50,000 reagents tested. In the full data, about 4,000 (8%) are marked active. 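Mouse siRNA library applied to hamster cells; one well for each siRNA.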 No sequences are given here."}
{"gene": "Vmn1r71", "PubChem SID": "SID363544954", "GFP, % of control": 97.6, "viability (ATP), % of control": 62.8, "Call": "inactive"}
{"gene": "Vmn1r71", "PubChem SID": "SID363551282", "GFP, % of control": 53.8, "viability (ATP), % of control": 70.7, "Call": "inactive"}
{"gene": "Vmn1r71", "PubChem SID": "SID363557831", "GFP, % of control": 96.6, "viability (ATP), % of control": 57.5, "Call": "inactive"}
{"gene": "Gdf3", "PubChem SID": "SID363541358", "GFP, % of control": 99.2, "viability (ATP), % of control": 61.9, "Call": "inactive"}
{"gene": "Gdf3", "PubChem SID": "SID363555985", "GFP, % of control": 62.8, "viability (ATP), % of control": 64.2, "Call": "inactive"}
{"gene": "Gdf3", "PubChem SID": "SID363566274", "GFP, % of control": 78.3, "viability (ATP), % of control": 71.9, "Call": "inactive"}
{"gene": "Tfpt", "PubChem SID": "SID363556484", "GFP, % of control": 41.7, "viability (ATP), % of control": 56.1, "Call": "inactive"}
{"gene": "Tfpt", "PubChem SID": "SID363586934", "GFP, % of control": 124, "viability (ATP), % of control": 135, "Call": "active"}
{"gene": "Tfpt", "PubChem SID": "SID363589042", "GFP, % of control": 138, "viability (ATP), % of control": 111, "Call": "active"}
{"gene": "Fli1", "PubChem SID": "SID363572687", "GFP, % of control": 68.7, "viability (ATP), % of control": 75.3, "Call": "inactive"}
{"gene": "Fli1", "PubChem SID": "SID363577967", "GFP, % of control": 101, "viability (ATP), % of control": 86.9, "Call": "inactive"}
{"gene": "Fli1", "PubChem SID": "SID363582191", "GFP, % of control": 83.6, "viability (ATP), % of control": 106, "Call": "inactive"}
{"gene": "Map4k1", "PubChem SID": "SID363570909", "GFP, % of control": 117, "viability (ATP), % of control": 73.7, "Call": "inactive"}
{"gene": "Lag3", "PubChem SID": "SID363544239", "GFP, % of control": 152, "viability (ATP), % of control": 64.9, "Call": "active"}
{"gene": "Lag3", "PubChem SID": "SID363550567", "GFP, % of control": 46.3, "viability (ATP), % of control": 64.5, "Call": "inactive"}
{"gene": "Lag3", "PubChem SID": "SID363557116", "GFP, % of control": 74.6, "viability (ATP), % of control": 34.4, "Call": "inactive"}
{"gene": "Chst9", "PubChem SID": "SID363570450", "GFP, % of control": 90.8, "viability (ATP), % of control": 94.5, "Call": "inactive"}
{"gene": "Chst9", "PubChem SID": "SID363579250", "GFP, % of control": 117, "viability (ATP), % of control": 131, "Call": "inactive"}
{"gene": "Chst9", "PubChem SID": "SID363583122", "GFP, % of control": 110, "viability (ATP), % of control": 125, "Call": "inactive"}
{"gene": "Slc5a4b", "PubChem SID": "SID363547695", "GFP, % of control": 108, "viability (ATP), % of control": 67.4, "Call": "inactive"}
{"gene": "Slc5a4b", "PubChem SID": "SID363558464", "GFP, % of control": 98.2, "viability (ATP), % of control": 93, "Call": "inactive"}
{"gene": "Slc5a4b", "PubChem SID": "SID363560222", "GFP, % of control": 81.4, "viability (ATP), % of control": 78.9, "Call": "inactive"}
{"gene": "Spatc1l", "PubChem SID": "SID363543560", "GFP, % of control": 66.9, "viability (ATP), % of control": 59.8, "Call": "inactive"}
{"gene": "Spatc1l", "PubChem SID": "SID363553053", "GFP, % of control": 21.4, "viability (ATP), % of control": 19.3, "Call": "inactive"}
{"gene": "Spatc1l", "PubChem SID": "SID363558901", "GFP, % of control": 118, "viability (ATP), % of control": 124, "Call": "inactive"}
{"gene": "Cd164", "PubChem SID": "SID363550021", "GFP, % of control": 72.2, "viability (ATP), % of control": 65.5, "Call": "inactive"}
{"gene": "Cd164", "PubChem SID": "SID363564530", "GFP, % of control": 85.3, "viability (ATP), % of control": 96.7, "Call": "inactive"}
{"gene": "Cd164", "PubChem SID": "SID363588075", "GFP, % of control": 104, "viability (ATP), % of control": 86.8, "Call": "inactive"}
{"gene": "Mogat2", "PubChem SID": "SID363570574", "GFP, % of control": 28.9, "viability (ATP), % of control": 25.6, "Call": "inactive"}
{"gene": "Mogat2", "PubChem SID": "SID363579374", "GFP, % of control": 99.9, "viability (ATP), % of control": 146, "Call": "inactive"}
{"gene": "Mogat2", "PubChem SID": "SID363583246", "GFP, % of control": 101, "viability (ATP), % of control": 113, "Call": "inactive"}
{"gene": "Sem1", "PubChem SID": "SID363554998", "GFP, % of control": 121, "viability (ATP), % of control": 90.4, "Call": "active"}
{"gene": "Sem1", "PubChem SID": "SID363568445", "GFP, % of control": 79, "viability (ATP), % of control": 73.7, "Call": "inactive"}
{"gene": "Sem1", "PubChem SID": "SID363586504", "GFP, % of control": 54.3, "viability (ATP), % of control": 65.8, "Call": "inactive"}
{"gene": "Ibsp", "PubChem SID": "SID363573435", "GFP, % of control": 118, "viability (ATP), % of control": 97.3, "Call": "inactive"}
{"gene": "Ibsp", "PubChem SID": "SID363588674", "GFP, % of control": 93.9, "viability (ATP), % of control": 80.5, "Call": "inactive"}
{"gene": "Gimap5", "PubChem SID": "SID363539807", "GFP, % of control": 64.5, "viability (ATP), % of control": 78.4, "Call": "inactive"}
{"gene": "Gimap5", "PubChem SID": "SID363561108", "GFP, % of control": 77.5, "viability (ATP), % of control": 71.2, "Call": "inactive"}
{"gene": "Gimap5", "PubChem SID": "SID363565198", "GFP, % of control": 56.4, "viability (ATP), % of control": 40, "Call": "inactive"}
{"gene": "Ttyh3", "PubChem SID": "SID363547811", "GFP, % of control": 164, "viability (ATP), % of control": 63.5, "Call": "active"}
{"gene": "Ttyh3", "PubChem SID": "SID363558580", "GFP, % of control": 95.2, "viability (ATP), % of control": 94.6, "Call": "inactive"}
{"gene": "Ttyh3", "PubChem SID": "SID363560338", "GFP, % of control": 88.3, "viability (ATP), % of control": 74.7, "Call": "inactive"}
